Results are given in words; binding and its absence hold for the method and conditions named. Some entries that bind do so weakly or less than the wild type. Where a sequence is shown, tags or fusion partners need not be part of it.
Target: perlecan on the surface of LLCAng-3 cells (UniProt Q05793)
Assay: immunocolocalization of Ang-3v5 and perlecan on LLCAng-3 cells and in the ECM

Sequences of proteins named here, by UniProt entry; tags and fusion partners are left off. Residues count along the entry.
UniProt Q05793, residues 22-3707: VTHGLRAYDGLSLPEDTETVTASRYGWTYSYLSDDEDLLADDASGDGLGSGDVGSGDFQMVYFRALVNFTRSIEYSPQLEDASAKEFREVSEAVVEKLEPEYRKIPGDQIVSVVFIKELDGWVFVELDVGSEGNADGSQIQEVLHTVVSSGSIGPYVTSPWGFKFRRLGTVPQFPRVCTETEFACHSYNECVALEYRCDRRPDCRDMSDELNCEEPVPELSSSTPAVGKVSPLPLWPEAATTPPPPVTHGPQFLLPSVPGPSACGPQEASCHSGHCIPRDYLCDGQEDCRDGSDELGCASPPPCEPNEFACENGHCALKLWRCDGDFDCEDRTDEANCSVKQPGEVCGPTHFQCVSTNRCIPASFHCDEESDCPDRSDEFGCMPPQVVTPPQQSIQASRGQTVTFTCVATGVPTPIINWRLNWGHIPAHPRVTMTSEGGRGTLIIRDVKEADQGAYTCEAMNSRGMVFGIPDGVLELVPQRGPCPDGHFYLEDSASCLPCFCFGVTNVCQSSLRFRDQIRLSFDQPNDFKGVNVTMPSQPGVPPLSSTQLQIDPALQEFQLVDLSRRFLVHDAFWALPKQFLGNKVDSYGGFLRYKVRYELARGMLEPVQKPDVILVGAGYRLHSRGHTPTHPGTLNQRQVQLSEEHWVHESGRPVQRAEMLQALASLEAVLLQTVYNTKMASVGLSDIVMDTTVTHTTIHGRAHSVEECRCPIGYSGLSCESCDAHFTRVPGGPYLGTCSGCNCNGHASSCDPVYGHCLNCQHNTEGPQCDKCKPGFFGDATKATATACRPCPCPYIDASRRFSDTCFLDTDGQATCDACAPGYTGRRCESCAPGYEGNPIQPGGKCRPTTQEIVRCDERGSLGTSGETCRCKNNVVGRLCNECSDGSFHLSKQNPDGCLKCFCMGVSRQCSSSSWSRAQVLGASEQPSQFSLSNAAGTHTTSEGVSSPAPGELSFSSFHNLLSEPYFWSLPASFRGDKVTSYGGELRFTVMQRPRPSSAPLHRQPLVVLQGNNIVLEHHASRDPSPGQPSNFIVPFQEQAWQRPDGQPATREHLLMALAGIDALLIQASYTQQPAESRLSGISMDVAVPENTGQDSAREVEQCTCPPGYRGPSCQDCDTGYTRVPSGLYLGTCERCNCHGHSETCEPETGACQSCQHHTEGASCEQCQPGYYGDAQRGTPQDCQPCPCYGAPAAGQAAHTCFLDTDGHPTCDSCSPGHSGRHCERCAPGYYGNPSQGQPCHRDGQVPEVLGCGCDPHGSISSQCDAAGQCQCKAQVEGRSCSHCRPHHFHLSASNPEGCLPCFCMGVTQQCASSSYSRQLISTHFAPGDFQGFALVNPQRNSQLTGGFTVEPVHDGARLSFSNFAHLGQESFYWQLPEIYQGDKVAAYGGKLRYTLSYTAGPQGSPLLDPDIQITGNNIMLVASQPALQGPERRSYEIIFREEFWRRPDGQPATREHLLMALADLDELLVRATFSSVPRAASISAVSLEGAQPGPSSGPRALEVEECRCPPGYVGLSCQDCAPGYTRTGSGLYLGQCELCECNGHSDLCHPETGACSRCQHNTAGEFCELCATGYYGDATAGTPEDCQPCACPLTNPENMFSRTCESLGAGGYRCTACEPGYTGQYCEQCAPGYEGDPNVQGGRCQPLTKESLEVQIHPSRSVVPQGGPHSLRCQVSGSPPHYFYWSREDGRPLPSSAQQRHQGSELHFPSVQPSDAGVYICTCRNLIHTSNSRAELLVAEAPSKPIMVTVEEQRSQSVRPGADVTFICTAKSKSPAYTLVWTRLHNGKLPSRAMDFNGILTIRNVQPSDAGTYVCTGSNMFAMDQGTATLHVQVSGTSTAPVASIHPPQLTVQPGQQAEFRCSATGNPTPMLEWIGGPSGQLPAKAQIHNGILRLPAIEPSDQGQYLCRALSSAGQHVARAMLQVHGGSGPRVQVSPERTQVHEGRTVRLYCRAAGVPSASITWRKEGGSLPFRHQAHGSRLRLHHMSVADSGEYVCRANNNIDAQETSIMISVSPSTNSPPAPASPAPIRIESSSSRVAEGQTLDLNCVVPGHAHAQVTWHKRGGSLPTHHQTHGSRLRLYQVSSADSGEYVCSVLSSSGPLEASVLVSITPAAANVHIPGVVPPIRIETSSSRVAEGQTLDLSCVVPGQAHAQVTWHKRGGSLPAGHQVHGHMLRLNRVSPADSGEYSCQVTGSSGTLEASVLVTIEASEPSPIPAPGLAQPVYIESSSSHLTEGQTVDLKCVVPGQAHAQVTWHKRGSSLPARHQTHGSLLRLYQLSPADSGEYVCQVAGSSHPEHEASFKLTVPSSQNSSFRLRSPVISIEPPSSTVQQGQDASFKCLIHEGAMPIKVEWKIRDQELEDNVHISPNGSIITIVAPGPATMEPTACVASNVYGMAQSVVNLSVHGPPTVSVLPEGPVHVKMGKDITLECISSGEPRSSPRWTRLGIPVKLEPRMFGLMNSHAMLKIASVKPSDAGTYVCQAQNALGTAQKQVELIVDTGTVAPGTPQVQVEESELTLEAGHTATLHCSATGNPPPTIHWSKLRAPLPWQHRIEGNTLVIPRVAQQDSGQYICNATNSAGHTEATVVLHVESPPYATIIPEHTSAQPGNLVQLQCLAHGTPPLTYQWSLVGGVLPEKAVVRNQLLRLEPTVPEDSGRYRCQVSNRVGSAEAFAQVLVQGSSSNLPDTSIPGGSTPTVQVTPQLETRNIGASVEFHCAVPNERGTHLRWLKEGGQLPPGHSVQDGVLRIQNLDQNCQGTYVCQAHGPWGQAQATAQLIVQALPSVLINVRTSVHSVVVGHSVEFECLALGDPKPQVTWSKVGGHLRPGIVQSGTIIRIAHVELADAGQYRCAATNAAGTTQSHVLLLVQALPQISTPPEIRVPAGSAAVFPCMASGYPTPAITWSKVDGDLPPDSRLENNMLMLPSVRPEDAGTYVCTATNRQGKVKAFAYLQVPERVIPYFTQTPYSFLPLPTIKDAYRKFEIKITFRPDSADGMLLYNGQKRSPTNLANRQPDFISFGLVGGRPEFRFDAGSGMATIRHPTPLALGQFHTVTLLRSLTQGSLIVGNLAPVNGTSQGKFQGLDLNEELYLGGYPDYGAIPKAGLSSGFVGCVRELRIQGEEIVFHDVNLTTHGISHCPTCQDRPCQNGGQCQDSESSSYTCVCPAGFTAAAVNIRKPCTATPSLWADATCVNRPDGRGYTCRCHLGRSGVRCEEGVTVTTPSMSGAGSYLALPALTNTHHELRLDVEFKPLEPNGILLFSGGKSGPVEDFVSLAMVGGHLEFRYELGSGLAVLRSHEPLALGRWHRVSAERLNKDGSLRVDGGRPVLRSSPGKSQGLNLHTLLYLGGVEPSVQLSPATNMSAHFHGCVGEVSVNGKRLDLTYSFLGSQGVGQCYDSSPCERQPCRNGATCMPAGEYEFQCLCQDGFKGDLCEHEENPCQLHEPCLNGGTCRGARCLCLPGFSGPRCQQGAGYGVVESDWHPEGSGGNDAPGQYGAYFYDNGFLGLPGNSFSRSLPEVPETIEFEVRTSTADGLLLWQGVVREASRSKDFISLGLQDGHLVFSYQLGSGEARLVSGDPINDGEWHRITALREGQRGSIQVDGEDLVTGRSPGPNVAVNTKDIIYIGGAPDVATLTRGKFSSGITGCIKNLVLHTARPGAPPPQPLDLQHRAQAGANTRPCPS

binding: binds
B1: v5 epitope tagged mouse Ang-3 (Ang-3v5) bound on the surface of transfected cells (LLCAng-3) (ligand, not shown: small tags and cut ends)
chain: AQHRGPEAGGHRQIHQVRRGQCSYTFVVPEPDICQLAPTAAPEALGGSNSLQRDLPASRLHLTDWRAQRAQRAQRVSQLEKILENNTQWLLKLEQSIKVNLRSHLVQAQQDTIQNQTTTMLALGANLMNQTKAQTHKLTAVEAQVLNQTLHMKTQMLENSLSTNKLERQMLMQSRELQRLQGRNRALETRLQALEAQHQAQLNSLQEKREQLHSLLGHQTGTLANLKHNLHALSSNSSSLQQQQQQLTEFVQRLVRIVAQDQHPVSLKTPKPVFQDCAEIKRSGVNTSGVYTIYETNMTKPLKVFCDMETDGGGWTLIQHREDGSVNFQRTWEEYKEGFGNVAREHWLGNEAVHRLTSRTAYLLRVELHDWEGRQTSIQYENFQLGSERQRYSLSVNDSSSSAGRKNSLAPQGTKFSTKDMDNDNCMCKCAQMLSGGWWFDACGLSNLNGIYYSVHQHLHKINGIRWHYFRGPSYSLHGTRMMLRPMGA
